Laboratory results from paper PMC10803776.
These are yes or no findings as the source states them, for the method shown. Binding seen in cells or lysates may run through a third protein. Some results given as binding are weak or reduced against the parent protein; the word gives no strength.

Amino acid sequences for entries named in this document (tags omitted).
UniProt P9WMT5: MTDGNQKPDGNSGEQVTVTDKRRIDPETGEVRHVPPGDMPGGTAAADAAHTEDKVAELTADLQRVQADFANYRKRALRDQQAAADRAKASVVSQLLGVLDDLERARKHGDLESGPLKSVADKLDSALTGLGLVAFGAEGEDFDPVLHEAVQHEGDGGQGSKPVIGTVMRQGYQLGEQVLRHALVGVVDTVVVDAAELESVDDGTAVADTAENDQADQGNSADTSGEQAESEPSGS

Experiments:
Assay in all cases: co-IP; ALFA-tagged bait captured on Nanobody ALFA magnetic beads from lysates of M. smegmatis CRISPRi depletion strains (ATc 50 ng/mL, 18 h); PBS, 10% glycerol, 4 mM EDTA, 4 °C, 2 h; eluates blotted with DnaK and GrpE antisera
[1] = target: Mtb ALFA-DnaK Mut-1 expressed in M. smegmatis (Mycobacterium tuberculosis) (UniProt P9WMJ9)
[2] = target: Mtb ALFA-DnaK Mut-3 expressed in M. smegmatis (Mycobacterium tuberculosis) (UniProt P9WMJ9)
[3] = target: Mtb ALFA-DnaK Mut-4 expressed in M. smegmatis (Mycobacterium tuberculosis) (UniProt P9WMJ9)

Measured: binding

GrpE in lysates of M. smegmatis carrying the Mtb dnaK operon (untagged) (from UniProt P9WMT5 1-235)
binds: [1] | [2] | [3]
